PubChem BioAssay AID1259308 | NCATS – 2017

Assay: 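Knock-downs that increase output of a recombinant reporter protein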 (primary screen)
Cell system: human HEK293 embryonic kidney cells stably expressing firefly luciferase (HEK-CMV-Luc2-Hygro)
Knock-down reagent: single siRNA against human genes, 0.8 pmol siRNA per well
Duration: 72 h
Measurement: 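Luciferase light (ONE-Glo) measured on one replicate plate set and viability (CellTiter-Glo) on the other, scaled to a negative control siRNA, with robust z-scores and luciferase per cell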
Scale: total luciferase, z-score and total luciferase, % of control: higher = more reporter protein produced; luciferase per cell, z-score: higher = more reporter output per viable cell; viable cells, % of control: higher = more viable cells
Hit rule: 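Active when the median/MAD z-score for overall luciferase is greater than 3; a gene was taken forward for validation with new siRNAs if at least two of its three siRNAs passed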
Calls: active = raised luciferase; inactive = no rise
Here is one part, drawn at random, of about 59,000 reagents tested. About 1,510 of them (2.6%) were called active. 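Calls use total luciferase alone and ignore viability, so some active siRNAs may act by altering cell number.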 Entries without a mark were called inactive. Reagents against one gene are numbered here. Reagent sequences are not shown.

| target gene | reagent no. | total luciferase, z-score | total luciferase, % of control | luciferase per cell, z-score | viable cells, % of control |
| --- | --- | --- | --- | --- | --- |
| RPS15AP9 (GeneID 441898) | 1 | 0.51 | 92 | 0.227 | 96.9 |
| RPS15AP9 (GeneID 441898) | 2 | -0.784 | 66.3 | -0.297 | 80.1 |
| RPS15AP9 (GeneID 441898) | 3 | -1.12 | 59.6 | -0.516 | 76.2 |
| KCNE4 (GeneID 23704) | 1 | 1.25 | 107 | 1.25 | 85.8 |
| KCNE4 (GeneID 23704) | 2 | 1.33 | 108 | 0.602 | 103 |
| KCNE4 (GeneID 23704) | 3 | 1.71 | 116 | 0.82 | 104 |
| RRP12 (GeneID 23223) | 1 | -0.822 | 65.5 | -0.569 | 85.1 |
| RRP12 (GeneID 23223) | 2 | -1.08 | 60.4 | -1.79 | 108 |
| RRP12 (GeneID 23223) | 3 | 1.14 | 105 | 0.929 | 91.5 |
| POLR1B (GeneID 84172) | 1 | -0.561 | 70.7 | -0.328 | 86.2 |
| POLR1B (GeneID 84172) | 2 | -1.86 | 44.8 | -1.31 | 70.8 |
| POLR1B (GeneID 84172) | 3 | 0.164 | 85.1 | 0.0363 | 94.2 |
| LMO7DN (GeneID 729420) | 1 | 1.85 | 119 | 1.6 | 87.1 |
| LMO7DN (GeneID 729420) | 2 | -0.312 | 75.7 | -0.522 | 97 |
| LMO7DN (GeneID 729420) | 3 | 0.149 | 84.9 | -0.49 | 108 |
| PGM5P4 (GeneID 729468) | 1 | 2.13 | 124 | 2 | 81.9 |
| PGM5P4 (GeneID 729468) | 2 | 0.592 | 93.7 | 0.733 | 86.3 |
| PGM5P4 (GeneID 729468) | 3 | -0.843 | 65.1 | -0.905 | 92.4 |
| SIX3 (GeneID 6496) | 1 | -1.36 | 54.9 | -1.81 | 98.8 |
| SIX3 (GeneID 6496) | 2 | -1.03 | 61.4 | -0.968 | 88.6 |
| SIX3 (GeneID 6496) | 3 | 1.62 | 114 | 1.59 | 83.7 |
| MRGPRG-AS1 (GeneID 283303) | 1 | -0.2 | 77.9 | -0.596 | 102 |
| MRGPRG-AS1 (GeneID 283303) | 2 | 0.424 | 90.3 | 0.325 | 92.7 |
| MRGPRG-AS1 (GeneID 283303) | 3 | -0.115 | 79.6 | 0.22 | 84 |
| KCTD21 (GeneID 283219) | 1 | -0.556 | 70.8 | -0.781 | 97.2 |
| KCTD21 (GeneID 283219) | 2 | 0.754 | 96.9 | 1.23 | 78.3 |
| KCTD21 (GeneID 283219) | 3 | 0.644 | 94.7 | 1.24 | 76.3 |
| KLHDC7A (GeneID 127707) | 1 | -0.559 | 70.8 | -0.0485 | 80.1 |
| KLHDC7A (GeneID 127707) | 2 | 2.72 | 136 | 3.02 | 68.7 |
| KLHDC7A (GeneID 127707) | 3 | 1.38 | 109 | 2.09 | 70.5 |
| CLTCL1 (GeneID 8218) | 1 | -0.779 | 66.4 | -0.358 | 81.5 |
| CLTCL1 (GeneID 8218) | 2 | -0.581 | 70.3 | -0.495 | 89.5 |
| CLTCL1 (GeneID 8218) | 3 | -1.04 | 61.2 | -0.469 | 77.3 |
| SNAPC2 (GeneID 6618) | 1 | 2.26 | 127 | 1.24 | 102 |
| SNAPC2 (GeneID 6618) | 2 | 2.07 | 123 | 1.07 | 104 |
| SNAPC2 (GeneID 6618) | 3 | 0.411 | 90.1 | -0.345 | 110 |
| MAP3K5 (GeneID 4217) | 1 | -0.846 | 65.1 | -0.905 | 92.3 |
| MAP3K5 (GeneID 4217) | 2 | 0.212 | 86.1 | 0.929 | 75.3 |
| MAP3K5 (GeneID 4217) | 3 | -0.072 | 80.5 | -0.381 | 99.4 |
| OR51I1 (GeneID 390063) | 1 | 0.988 | 102 | 1.59 | 74.6 |
| OR51I1 (GeneID 390063) | 2 | -1.55 | 51.1 | -1.31 | 80.7 |
| OR51I1 (GeneID 390063) | 3 | 1.65 | 115 | 1.7 | 81.9 |
| SLC25A15 (GeneID 10166) | 1 | 0.723 | 96.3 | 0.692 | 89.7 |
| SLC25A15 (GeneID 10166) | 2 | 2.15 | 125 | 1.47 | 94.6 |
| SLC25A15 (GeneID 10166) | 3 | -0.535 | 71.3 | -0.849 | 99.6 |
| SERPINB7 (GeneID 8710) | 1 | 4.7 (active) | 175 | 3.85 | 71.1 |
| SERPINB7 (GeneID 8710) | 2 | -0.292 | 76.1 | -1.19 | 116 |
| SERPINB7 (GeneID 8710) | 3 | -1.47 | 52.7 | -1.8 | 94.5 |
| KLC4 (GeneID 89953) | 1 | -1.64 | 49.3 | 0.68 | 46.1 |
| KLC4 (GeneID 89953) | 2 | -0.164 | 78.6 | -0.772 | 108 |
| KLC4 (GeneID 89953) | 3 | -0.388 | 74.2 | -0.187 | 87.1 |
| CAPN9 (GeneID 10753) | 1 | 0.026 | 82.4 | -0.286 | 99.3 |
| CAPN9 (GeneID 10753) | 2 | 1.62 | 114 | 1.31 | 90.3 |
| CAPN9 (GeneID 10753) | 3 | 1.46 | 111 | 1.31 | 87.9 |
| ASPG (GeneID 374569) | 1 | 0.866 | 99.1 | 0.53 | 96.3 |
| ASPG (GeneID 374569) | 2 | -0.307 | 75.8 | -0.247 | 90.4 |
| ASPG (GeneID 374569) | 3 | -0.775 | 66.5 | -0.865 | 93.3 |
| SMPDL3B (GeneID 27293) | 1 | -0.496 | 72 | -0.755 | 98.2 |
| SMPDL3B (GeneID 27293) | 2 | 0.475 | 91.3 | 0.327 | 93.6 |
| SMPDL3B (GeneID 27293) | 3 | 0.465 | 91.1 | 0.0405 | 101 |
| RPP30 (GeneID 10556) | 1 | -1.1 | 60 | -1.44 | 98 |
| RPP30 (GeneID 10556) | 2 | 3.59 (active) | 153 | 2.67 | 84.9 |
| RPP30 (GeneID 10556) | 3 | -1.83 | 45.4 | -2.66 | 102 |
| CSRP2 (GeneID 1466) | 1 | 0.25 | 86.9 | -0.395 | 108 |
| CSRP2 (GeneID 1466) | 2 | -0.873 | 64.5 | -1.54 | 108 |
| CSRP2 (GeneID 1466) | 3 | -1.17 | 58.6 | -0.988 | 84.9 |
| DHTKD1 (GeneID 55526) | 1 | -0.262 | 76.7 | 0.523 | 74.7 |
| DHTKD1 (GeneID 55526) | 2 | -0.478 | 72.4 | 0.689 | 67.5 |
| DHTKD1 (GeneID 55526) | 3 | -0.723 | 67.5 | -0.673 | 90.1 |
| EXT1 (GeneID 2131) | 1 | 0.602 | 93.9 | 0.0964 | 102 |
| EXT1 (GeneID 2131) | 2 | 0.141 | 84.7 | -0.365 | 104 |
| EXT1 (GeneID 2131) | 3 | -0.595 | 70.1 | -1.06 | 104 |
| GLOD5 (GeneID 392465) | 1 | 1.29 | 108 | 1.92 | 72.4 |
| GLOD5 (GeneID 392465) | 2 | -0.336 | 75.2 | 0.0161 | 83.7 |
| GLOD5 (GeneID 392465) | 3 | -1.75 | 47 | -2.18 | 93.2 |

An excerpt from above, reduced to “luciferase per cell, z-score”:
CLTCL1 (GeneID 8218) #2	-0.495
CLTCL1 (GeneID 8218) #3	-0.469
SNAPC2 (GeneID 6618) #1	1.24
SNAPC2 (GeneID 6618) #2	1.07
SNAPC2 (GeneID 6618) #3	-0.345
MAP3K5 (GeneID 4217) #1	-0.905
